No constants are given. Whether binding was seen depends on the method and setting. In cells and extracts the contact can be indirect. Some entries that bind do so weakly or less than the wild type.
Assays:
[1] = biological target: α-Catenin (human (endogenous in NCI-H295R)) (UniProt P35221); assay: co-IP
[2] = biological target: T1, K-Cadherin (mouse) (mouse (endogenous in adrenal tissue)) (UniProt P97326); assay: proximity ligation
T1 sequence: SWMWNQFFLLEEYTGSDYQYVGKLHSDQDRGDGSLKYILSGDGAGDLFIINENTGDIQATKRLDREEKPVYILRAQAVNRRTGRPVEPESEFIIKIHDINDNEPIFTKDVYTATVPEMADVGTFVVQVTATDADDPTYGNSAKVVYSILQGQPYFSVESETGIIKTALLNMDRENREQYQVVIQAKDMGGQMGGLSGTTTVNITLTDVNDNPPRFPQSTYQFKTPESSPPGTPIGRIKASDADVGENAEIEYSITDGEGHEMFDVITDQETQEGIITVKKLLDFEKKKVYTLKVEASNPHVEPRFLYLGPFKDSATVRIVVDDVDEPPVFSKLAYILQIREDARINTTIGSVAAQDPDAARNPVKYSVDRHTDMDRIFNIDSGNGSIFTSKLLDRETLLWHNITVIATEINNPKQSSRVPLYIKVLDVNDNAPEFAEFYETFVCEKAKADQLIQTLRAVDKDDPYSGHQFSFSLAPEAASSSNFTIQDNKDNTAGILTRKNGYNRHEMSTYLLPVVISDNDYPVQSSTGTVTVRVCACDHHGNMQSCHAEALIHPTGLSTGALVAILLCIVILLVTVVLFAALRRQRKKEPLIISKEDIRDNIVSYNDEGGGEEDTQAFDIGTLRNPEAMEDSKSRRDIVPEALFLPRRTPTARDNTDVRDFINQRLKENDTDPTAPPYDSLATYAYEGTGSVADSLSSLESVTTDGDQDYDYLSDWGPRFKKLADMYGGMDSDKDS

The chains behind the UniProt entries cited, without tags or fusion partners. Where a name states a change or a piece, a line headed by the entry shows the natural chain unless it says otherwise.
UniProt P35221, whole entry: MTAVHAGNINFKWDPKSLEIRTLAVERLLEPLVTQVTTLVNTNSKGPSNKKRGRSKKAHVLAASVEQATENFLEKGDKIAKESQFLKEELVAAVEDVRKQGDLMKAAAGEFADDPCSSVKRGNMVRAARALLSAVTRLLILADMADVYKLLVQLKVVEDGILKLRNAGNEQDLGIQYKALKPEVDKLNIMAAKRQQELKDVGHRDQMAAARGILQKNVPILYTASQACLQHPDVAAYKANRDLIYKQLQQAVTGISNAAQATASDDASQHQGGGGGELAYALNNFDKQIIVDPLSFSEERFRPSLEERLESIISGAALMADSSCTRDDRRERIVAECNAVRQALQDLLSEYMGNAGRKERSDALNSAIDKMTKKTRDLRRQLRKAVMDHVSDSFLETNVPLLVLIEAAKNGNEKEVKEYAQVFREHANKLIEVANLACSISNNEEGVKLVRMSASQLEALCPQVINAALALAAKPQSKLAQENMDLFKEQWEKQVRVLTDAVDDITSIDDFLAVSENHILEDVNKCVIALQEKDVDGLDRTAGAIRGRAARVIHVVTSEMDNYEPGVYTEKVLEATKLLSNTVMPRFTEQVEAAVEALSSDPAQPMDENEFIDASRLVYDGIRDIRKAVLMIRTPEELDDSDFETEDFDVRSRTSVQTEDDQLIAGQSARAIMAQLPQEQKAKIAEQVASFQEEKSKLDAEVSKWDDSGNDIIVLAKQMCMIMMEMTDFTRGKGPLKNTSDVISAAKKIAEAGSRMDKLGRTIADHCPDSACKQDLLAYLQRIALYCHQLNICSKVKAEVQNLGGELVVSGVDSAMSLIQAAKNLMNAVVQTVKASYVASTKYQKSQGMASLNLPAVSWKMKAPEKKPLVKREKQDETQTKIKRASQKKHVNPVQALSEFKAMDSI

[3] = biological target: T2, K-Cadherin (human (endogenous in NCI-H295R and in human APA tissue)) (UniProt P55285); assay: proximity ligation
T2 sequence: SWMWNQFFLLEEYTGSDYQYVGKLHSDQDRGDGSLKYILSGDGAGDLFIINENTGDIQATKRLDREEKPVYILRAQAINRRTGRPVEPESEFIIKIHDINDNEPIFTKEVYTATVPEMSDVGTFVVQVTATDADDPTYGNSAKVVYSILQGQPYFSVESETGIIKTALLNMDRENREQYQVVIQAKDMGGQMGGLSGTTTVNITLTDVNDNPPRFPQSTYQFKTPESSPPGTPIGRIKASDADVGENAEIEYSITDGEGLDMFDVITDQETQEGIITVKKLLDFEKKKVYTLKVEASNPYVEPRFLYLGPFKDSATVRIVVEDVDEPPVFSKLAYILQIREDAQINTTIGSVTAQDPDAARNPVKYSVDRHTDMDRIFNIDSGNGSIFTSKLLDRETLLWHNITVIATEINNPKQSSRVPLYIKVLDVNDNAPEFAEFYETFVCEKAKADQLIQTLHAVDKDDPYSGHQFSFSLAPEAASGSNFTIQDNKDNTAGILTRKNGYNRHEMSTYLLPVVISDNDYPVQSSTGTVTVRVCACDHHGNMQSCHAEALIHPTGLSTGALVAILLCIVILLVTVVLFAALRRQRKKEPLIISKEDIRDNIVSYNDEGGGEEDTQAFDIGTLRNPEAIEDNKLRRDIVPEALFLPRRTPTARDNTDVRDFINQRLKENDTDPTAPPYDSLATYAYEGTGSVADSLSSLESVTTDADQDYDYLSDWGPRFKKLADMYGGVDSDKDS

B1: K-Cadherin (protein, UniProt P55285 54-790)
chain: T2 sequence
- binding [1]: binds

B2: p120-catenin (mouse) (protein, UniProt P30999 1-938)
chain: MDDSEVESTASILASVKEQEAQFEKLTRALEEERRHVSAQLERVRVSPQDANSLMANGTLTRRHQNGRFVGDADLERQKFSDLKLNGPQDHNHLLYSTIPRMQEPGQIVETYTEEDPEGAMSVVSVETTDDGTTRRTETTVKKVVKTMTTRTVQPVPMGPDGLPVDASAVSNNYIQTLGRDFRKNGNGGPGPYVGQAGTATLPRNFHYPPDGYGRHYEDGYPGGSDNYGSLSRVTRIEERYRPSMEGYRAPSRQDVYGPQPQVRVGGSSVDLHRFHPEPYGLEDDQRSMGYDDLDYGMMSDYGTARRTGTPSDPRRRLRSYEDMIGEEVPPDQYYWAPLAQHERGSLASLDSLRKGMPPPSNWRQPELPEVIAMLGFRLDAVKSNAAAYLQHLCYRNDKVKTDVRKLKGIPILVGLLDHPKKEVHLGACGALKNISFGRDQDNKIAIKNCDGVPALVRLLRKARDMDLTEVITGTLWNLSSHDSIKMEIVDHALHALTDEVIIPHSGWEREPNEDCKPRHIEWESVLTNTAGCLRNVSSERSEARRKLRECDGLVDALIFIVQAEIGQKDSDSKLVENCVCLLRNLSYQVHREIPQAERYQEALPTVANSTGPHAASCFGAKKGKDEWFSRGKKPTEDPANDTVDFPKRTSPARGYELLFQPEVVRIYISLLKESKTPAILEASAGAIQNLCAGRWTYGRYIRSALRQEKALSAIAELLTSEHERVVKAASGALRNLAVDARNKELIGKHAIPNLVKNLPGGQQNSSWNFSEDTVVSILNTINEVIAENLEAAKKLRETQGIEKLVLINKSGNRSEKEVRAAALVLQTIWGYKELRKPLEKEGWKKSDFQVNLNNASRSQSSHSYDDSTLPLIDRNQKSDKKPDREEIPMSNMGSNTKSLDNNYSTLNERGDHNRTLDRSGDLGDMEPLKGAPLMQKI
- binding [2]: binds

B3: p120-catenin (human) (protein, UniProt O60716 1-968)
chain: MDDSEVESTASILASVKEQEAQFEKLTRALEEERRHVSAQLERVRVSPQDANPLMANGTLTRRHQNGRFVGDADLERQKFSDLKLNGPQDHSHLLYSTIPRMQEPGQIVETYTEEDPEGAMSVVSVETSDDGTTRRTETTVKKVVKTVTTRTVQPVAMGPDGLPVDASSVSNNYIQTLGRDFRKNGNGGPGPYVGQAGTATLPRNFHYPPDGYSRHYEDGYPGGSDNYGSLSRVTRIEERYRPSMEGYRAPSRQDVYGPQPQVRVGGSSVDLHRFHPEPYGLEDDQRSMGYDDLDYGMMSDYGTARRTGTPSDPRRRLRSYEDMIGEEVPSDQYYWAPLAQHERGSLASLDSLRKGGPPPPNWRQPELPEVIAMLGFRLDAVKSNAAAYLQHLCYRNDKVKTDVRKLKGIPVLVGLLDHPKKEVHLGACGALKNISFGRDQDNKIAIKNCDGVPALVRLLRKARDMDLTEVITGTLWNLSSHDSIKMEIVDHALHALTDEVIIPHSGWEREPNEDCKPRHIEWESVLTNTAGCLRNVSSERSEARRKLRECDGLVDALIFIVQAEIGQKDSDSKLVENCVCLLRNLSYQVHREIPQAERYQEAAPNVANNTGPHAASCFGAKKGKDEWFSRGKKPIEDPANDTVDFPKRTSPARGYELLFQPEVVRIYISLLKESKTPAILEASAGAIQNLCAGRWTYGRYIRSALRQEKALSAIADLLTNEHERVVKAASGALRNLAVDARNKELIGKHAIPNLVKNLPGGQQNSSWNFSEDTVISILNTINEVIAENLEAAKKLRETQGIEKLVLINKSGNRSEKEVRAAALVLQTIWGYKELRKPLEKEGWKKSDFQVNLNNASRSQSSHSYDDSTLPLIDRNQKSDKKPDREEIQMSNMGSNTKSLDNNYSTPNERGDHNRTLDRSGDLGDMEPLKGTTPLMQDEGQESLEEELDVLVLDDEGGQVSYPSMQKI
- binding [3]: binds

Source: paper doi:10.1101/2025.10.06.680572
